{"source": "PubChem BioAssay AID1053208, Peter MacCallum Cancer Centre, 2014", "assay": "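Find knock-downs that sensitise mouse osteosarcoma cells to doxorubicin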 (primary screen)", "system": "mouse osteosarcoma cells, early-passage culture from an engineered mouse model of fibroblastic bone tumour", "reagents": "siRNA pool against mouse genes, 40 nM", "time to read-out": "about 120 h (48 h before drug, then 72 h with drug)", "treatment": "doxorubicin 100 nM for 72 h, roughly 30-40% inhibitory dose", "measurement": "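Luminescent ATP signal taken as viability with or without 100 nM doxorubicin for 72 h; mean of two wells set against non-targeting siRNA and turned into robust z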", "direction": "viability z-score with doxorubicin: higher = more viable cells under doxorubicin; viability z-score without drug: higher = more viable cells with knock-down alone", "rule for the call": "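a pool counts as active when its viability z-score with doxorubicin is -2 or below and its z-score without drug lies between -2 and 2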", "note": "Shown is one part, drawn at random, of about 17,000 reagents. Of all reagents, 788 (4.7%) are marked active. 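Calls rest on z-score classes alone; an extra cut-off of viability at most 70% of control was not applied to them.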 Reagents against one gene are numbered here. Not all columns of the deposit are shown. No sequences are given here."}
{"gene": "Or8k22", "reagent": 1, "combined z-score class": "no change with or without drug", "viability z-score with doxorubicin": 0.67, "viability z-score without drug": -0.17, "Outcome": "inactive"}
{"gene": "Gimap9", "reagent": 1, "combined z-score class": "no change with or without drug", "viability z-score with doxorubicin": -0.22, "viability z-score without drug": 0, "Outcome": "inactive"}
{"gene": "Aph1a", "reagent": 1, "combined z-score class": "high cell count without drug only", "viability z-score with doxorubicin": -1.24, "viability z-score without drug": 2.02, "Outcome": "inactive"}
{"gene": "Or5as1", "reagent": 1, "combined z-score class": "no change with or without drug", "viability z-score with doxorubicin": 1.01, "viability z-score without drug": 1.01, "Outcome": "inactive"}
{"gene": "Tro", "reagent": 1, "combined z-score class": "no change with or without drug", "viability z-score with doxorubicin": -1.12, "viability z-score without drug": -0.84, "Outcome": "inactive"}
{"gene": "Arhgap5", "reagent": 1, "combined z-score class": "no change with or without drug", "viability z-score with doxorubicin": -0.67, "viability z-score without drug": -0.84, "Outcome": "inactive"}
{"gene": "Pramel48", "reagent": 1, "combined z-score class": "no change with or without drug", "viability z-score with doxorubicin": -0.67, "viability z-score without drug": 0.84, "Outcome": "inactive"}
{"gene": "Erich2", "reagent": 1, "combined z-score class": "no change with or without drug", "viability z-score with doxorubicin": -0.9, "viability z-score without drug": 0.84, "Outcome": "inactive"}
{"gene": "Svs6", "reagent": 1, "combined z-score class": "no change with or without drug", "viability z-score with doxorubicin": 1.35, "viability z-score without drug": -1.85, "Outcome": "inactive"}
{"gene": "Selenop", "reagent": 1, "combined z-score class": "no change with or without drug", "viability z-score with doxorubicin": -1.35, "viability z-score without drug": -0.17, "Outcome": "inactive"}
{"gene": "Pex2", "reagent": 1, "combined z-score class": "no change with or without drug", "viability z-score with doxorubicin": -0.45, "viability z-score without drug": 0.34, "Outcome": "inactive"}
{"gene": "Rab21", "reagent": 1, "combined z-score class": "no change with or without drug", "viability z-score with doxorubicin": -1.12, "viability z-score without drug": 0, "Outcome": "inactive"}
{"gene": "Zfp428", "reagent": 1, "combined z-score class": "no change with or without drug", "viability z-score with doxorubicin": -0.22, "viability z-score without drug": 0.67, "Outcome": "inactive"}
{"gene": "Pja2", "reagent": 1, "combined z-score class": "no change with or without drug", "viability z-score with doxorubicin": -1.35, "viability z-score without drug": 0, "Outcome": "inactive"}
{"gene": "Selenos", "reagent": 1, "combined z-score class": "no change with or without drug", "viability z-score with doxorubicin": -0.67, "viability z-score without drug": 0.51, "Outcome": "inactive"}
{"gene": "Dvl3", "reagent": 1, "combined z-score class": "no change with or without drug", "viability z-score with doxorubicin": 0.67, "viability z-score without drug": 0.51, "Outcome": "inactive"}
{"gene": "Rpl15", "reagent": 1, "combined z-score class": "low cell count with and without drug", "viability z-score with doxorubicin": -6.74, "viability z-score without drug": -7.59, "Outcome": "inactive"}

Ordered by “viability z-score with doxorubicin” (descending): some entries from above.
{"gene": "Pramel48", "reagent": 1, "combined z-score class": "no change with or without drug", "viability z-score with doxorubicin": -0.67, "viability z-score without drug": 0.84, "Outcome": "inactive"}
{"gene": "Erich2", "reagent": 1, "combined z-score class": "no change with or without drug", "viability z-score with doxorubicin": -0.9, "viability z-score without drug": 0.84, "Outcome": "inactive"}

Continued:
{"gene": "Slc44a2", "reagent": 1, "combined z-score class": "no change with or without drug", "viability z-score with doxorubicin": -0.22, "viability z-score without drug": -0.17, "Outcome": "inactive"}
{"gene": "Antxr1", "reagent": 1, "combined z-score class": "no change with or without drug", "viability z-score with doxorubicin": -0.11, "viability z-score without drug": 0.51, "Outcome": "inactive"}
{"gene": "Cdc14b", "reagent": 1, "combined z-score class": "no change with or without drug", "viability z-score with doxorubicin": -0.11, "viability z-score without drug": -0.51, "Outcome": "inactive"}
{"gene": "Fry", "reagent": 1, "combined z-score class": "no change with or without drug", "viability z-score with doxorubicin": -1.35, "viability z-score without drug": -0.84, "Outcome": "inactive"}
{"gene": "Fry", "reagent": 2, "combined z-score class": "no change with or without drug", "viability z-score with doxorubicin": -1.35, "viability z-score without drug": -1.18, "Outcome": "inactive"}
{"gene": "Atp6v1g1", "reagent": 1, "combined z-score class": "no change with or without drug", "viability z-score with doxorubicin": 1.24, "viability z-score without drug": 1.52, "Outcome": "inactive"}
{"gene": "Rbp3", "reagent": 1, "combined z-score class": "no change with or without drug", "viability z-score with doxorubicin": 0, "viability z-score without drug": -0.17, "Outcome": "inactive"}
{"gene": "B3galt1", "reagent": 1, "combined z-score class": "no change with or without drug", "viability z-score with doxorubicin": -0.79, "viability z-score without drug": -1.01, "Outcome": "inactive"}
{"gene": "Spo11", "reagent": 1, "combined z-score class": "no change with or without drug", "viability z-score with doxorubicin": 0.67, "viability z-score without drug": 0.17, "Outcome": "inactive"}
{"gene": "Kif1a", "reagent": 1, "combined z-score class": "no change with or without drug", "viability z-score with doxorubicin": 0.67, "viability z-score without drug": 1.52, "Outcome": "inactive"}
{"gene": "Iws1", "reagent": 1, "combined z-score class": "high cell count with and without drug", "viability z-score with doxorubicin": 2.14, "viability z-score without drug": 2.36, "Outcome": "inactive"}
